Read-outs that look alike come from different tables or passages of the source. Results are given in words; binding and its absence hold for the method and conditions named. For part of these data: In cells and extracts the contact can be indirect. Some results given as binding are weak or reduced against the parent protein; the word gives no strength. For part of these data: Tags and fused reporters may be left off the sequences shown.
Legend:
[1] = target: KIF5B (endogenous, HeLa) (human (endogenous in HeLa)) (UniProt P33176); test: co-IP
[2] = target: T1, FLAG-KASH5-FL (human) (UniProt Q8N6L0); test: co-IP
T1 sequence: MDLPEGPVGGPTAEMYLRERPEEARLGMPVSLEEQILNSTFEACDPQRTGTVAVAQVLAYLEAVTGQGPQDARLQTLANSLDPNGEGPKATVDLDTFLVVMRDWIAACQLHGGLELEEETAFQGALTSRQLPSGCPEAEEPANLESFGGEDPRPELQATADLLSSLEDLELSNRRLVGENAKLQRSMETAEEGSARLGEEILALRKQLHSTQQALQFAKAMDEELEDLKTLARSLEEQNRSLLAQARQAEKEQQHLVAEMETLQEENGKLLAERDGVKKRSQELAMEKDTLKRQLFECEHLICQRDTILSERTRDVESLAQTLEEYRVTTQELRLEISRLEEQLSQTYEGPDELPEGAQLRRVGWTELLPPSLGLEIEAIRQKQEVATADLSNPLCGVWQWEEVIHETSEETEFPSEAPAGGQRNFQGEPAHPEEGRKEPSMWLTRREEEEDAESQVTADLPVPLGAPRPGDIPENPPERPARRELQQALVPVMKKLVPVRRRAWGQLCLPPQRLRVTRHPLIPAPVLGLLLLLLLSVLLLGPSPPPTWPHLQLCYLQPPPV

The chains behind the UniProt entries cited, without tags or fusion partners.
UniProt P33176: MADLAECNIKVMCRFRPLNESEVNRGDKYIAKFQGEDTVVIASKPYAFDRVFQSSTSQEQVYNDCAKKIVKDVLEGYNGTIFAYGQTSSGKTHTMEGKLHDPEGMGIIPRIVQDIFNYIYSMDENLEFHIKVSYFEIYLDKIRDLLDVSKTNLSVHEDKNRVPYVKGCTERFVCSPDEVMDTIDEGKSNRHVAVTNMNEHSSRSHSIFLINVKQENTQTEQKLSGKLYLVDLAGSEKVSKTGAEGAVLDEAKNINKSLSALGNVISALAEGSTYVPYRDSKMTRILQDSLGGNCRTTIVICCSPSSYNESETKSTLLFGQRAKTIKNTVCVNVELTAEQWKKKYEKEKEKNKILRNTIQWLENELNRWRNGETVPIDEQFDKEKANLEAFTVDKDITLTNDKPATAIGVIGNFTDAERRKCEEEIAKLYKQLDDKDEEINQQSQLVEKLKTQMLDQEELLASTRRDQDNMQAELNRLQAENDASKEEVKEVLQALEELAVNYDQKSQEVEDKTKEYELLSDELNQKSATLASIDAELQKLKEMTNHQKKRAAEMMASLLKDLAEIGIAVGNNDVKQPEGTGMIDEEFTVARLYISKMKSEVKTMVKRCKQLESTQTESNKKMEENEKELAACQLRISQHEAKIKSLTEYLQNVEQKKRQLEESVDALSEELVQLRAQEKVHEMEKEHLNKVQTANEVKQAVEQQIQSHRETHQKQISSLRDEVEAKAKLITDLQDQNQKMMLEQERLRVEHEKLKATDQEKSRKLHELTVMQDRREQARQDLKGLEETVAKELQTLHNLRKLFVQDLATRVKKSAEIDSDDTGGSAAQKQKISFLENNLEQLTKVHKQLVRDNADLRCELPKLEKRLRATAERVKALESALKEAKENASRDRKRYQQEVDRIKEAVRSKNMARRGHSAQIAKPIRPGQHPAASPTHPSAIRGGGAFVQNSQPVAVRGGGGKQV
UniProt Q61768: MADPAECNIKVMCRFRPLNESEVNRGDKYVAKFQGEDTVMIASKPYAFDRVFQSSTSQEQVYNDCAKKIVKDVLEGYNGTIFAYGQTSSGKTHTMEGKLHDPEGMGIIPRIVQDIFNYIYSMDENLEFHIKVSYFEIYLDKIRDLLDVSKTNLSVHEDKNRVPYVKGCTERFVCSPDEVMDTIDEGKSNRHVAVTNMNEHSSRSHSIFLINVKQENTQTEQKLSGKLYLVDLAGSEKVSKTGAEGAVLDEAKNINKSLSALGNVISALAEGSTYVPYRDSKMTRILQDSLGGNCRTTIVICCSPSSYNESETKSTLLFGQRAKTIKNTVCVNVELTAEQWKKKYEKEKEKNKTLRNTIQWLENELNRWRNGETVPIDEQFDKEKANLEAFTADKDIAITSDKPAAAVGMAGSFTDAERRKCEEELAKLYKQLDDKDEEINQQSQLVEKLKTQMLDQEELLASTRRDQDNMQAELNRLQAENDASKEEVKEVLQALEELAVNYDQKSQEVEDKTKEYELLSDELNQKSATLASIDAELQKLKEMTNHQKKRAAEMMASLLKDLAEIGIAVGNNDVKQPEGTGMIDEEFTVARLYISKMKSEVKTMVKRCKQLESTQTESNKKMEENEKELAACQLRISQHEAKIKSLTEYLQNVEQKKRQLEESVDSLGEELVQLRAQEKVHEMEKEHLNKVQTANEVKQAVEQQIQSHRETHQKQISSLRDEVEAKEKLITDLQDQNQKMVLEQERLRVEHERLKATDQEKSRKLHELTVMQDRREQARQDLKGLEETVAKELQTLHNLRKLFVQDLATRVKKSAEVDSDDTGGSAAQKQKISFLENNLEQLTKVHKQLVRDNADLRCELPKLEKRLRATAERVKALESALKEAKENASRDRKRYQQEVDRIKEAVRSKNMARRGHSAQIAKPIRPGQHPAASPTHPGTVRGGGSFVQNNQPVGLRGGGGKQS
UniProt O94901: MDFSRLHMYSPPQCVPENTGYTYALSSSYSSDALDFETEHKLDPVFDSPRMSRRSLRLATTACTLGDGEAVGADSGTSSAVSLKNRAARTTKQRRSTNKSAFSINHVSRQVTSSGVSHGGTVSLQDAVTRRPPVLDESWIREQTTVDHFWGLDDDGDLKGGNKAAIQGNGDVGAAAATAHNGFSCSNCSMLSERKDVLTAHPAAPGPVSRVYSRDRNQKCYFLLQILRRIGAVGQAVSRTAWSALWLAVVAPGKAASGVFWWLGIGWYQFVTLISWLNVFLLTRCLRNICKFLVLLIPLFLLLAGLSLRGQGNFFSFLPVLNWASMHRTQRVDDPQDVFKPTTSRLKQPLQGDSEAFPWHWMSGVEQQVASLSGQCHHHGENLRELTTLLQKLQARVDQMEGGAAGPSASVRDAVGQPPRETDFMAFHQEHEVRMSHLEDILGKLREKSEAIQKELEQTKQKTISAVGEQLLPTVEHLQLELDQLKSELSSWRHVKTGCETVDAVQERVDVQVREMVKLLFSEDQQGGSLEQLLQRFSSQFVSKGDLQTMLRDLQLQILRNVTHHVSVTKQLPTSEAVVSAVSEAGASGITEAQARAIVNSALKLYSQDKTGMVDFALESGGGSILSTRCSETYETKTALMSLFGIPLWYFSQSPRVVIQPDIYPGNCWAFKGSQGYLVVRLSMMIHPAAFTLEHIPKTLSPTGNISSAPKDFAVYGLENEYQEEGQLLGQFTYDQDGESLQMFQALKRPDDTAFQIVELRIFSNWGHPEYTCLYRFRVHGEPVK

[3] = target: T2, KASH5 (mouse (endogenous in testis)) (UniProt Q80VJ8); test: co-IP
T2 sequence: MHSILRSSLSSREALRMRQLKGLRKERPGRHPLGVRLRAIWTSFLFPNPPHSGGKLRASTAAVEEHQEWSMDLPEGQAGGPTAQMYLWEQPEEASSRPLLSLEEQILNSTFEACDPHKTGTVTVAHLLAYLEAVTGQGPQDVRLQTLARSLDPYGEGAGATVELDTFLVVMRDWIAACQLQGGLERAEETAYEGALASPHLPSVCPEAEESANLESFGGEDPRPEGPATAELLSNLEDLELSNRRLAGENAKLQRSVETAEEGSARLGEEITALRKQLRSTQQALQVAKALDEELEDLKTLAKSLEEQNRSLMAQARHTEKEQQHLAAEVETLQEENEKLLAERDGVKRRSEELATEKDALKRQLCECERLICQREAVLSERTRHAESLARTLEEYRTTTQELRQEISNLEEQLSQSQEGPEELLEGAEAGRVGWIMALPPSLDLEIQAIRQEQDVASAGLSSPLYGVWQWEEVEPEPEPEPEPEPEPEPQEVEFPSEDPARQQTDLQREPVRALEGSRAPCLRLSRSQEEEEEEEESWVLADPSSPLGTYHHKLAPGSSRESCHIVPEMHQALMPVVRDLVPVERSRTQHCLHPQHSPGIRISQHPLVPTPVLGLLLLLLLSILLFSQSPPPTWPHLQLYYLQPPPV

[4] = target: T3, mouse KASH5 (70-579 amino acids) (mouse) (UniProt Q80VJ8); test: two-hybrid
T3 sequence: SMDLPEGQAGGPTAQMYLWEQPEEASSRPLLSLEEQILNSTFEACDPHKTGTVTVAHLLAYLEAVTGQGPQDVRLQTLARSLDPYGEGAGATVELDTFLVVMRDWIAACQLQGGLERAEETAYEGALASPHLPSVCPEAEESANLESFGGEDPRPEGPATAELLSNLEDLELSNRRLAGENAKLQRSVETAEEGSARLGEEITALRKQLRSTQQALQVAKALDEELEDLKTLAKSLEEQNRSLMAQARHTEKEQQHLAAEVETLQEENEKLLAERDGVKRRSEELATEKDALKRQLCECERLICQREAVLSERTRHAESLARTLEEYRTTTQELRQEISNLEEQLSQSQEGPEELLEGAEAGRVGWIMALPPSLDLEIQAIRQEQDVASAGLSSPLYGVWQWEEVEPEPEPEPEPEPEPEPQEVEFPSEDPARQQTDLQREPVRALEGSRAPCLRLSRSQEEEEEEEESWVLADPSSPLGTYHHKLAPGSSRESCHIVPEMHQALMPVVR

[5] = target: KIF5B (mouse (endogenous in testis)) (UniProt Q61768); test: co-IP
[6] = target: KIF5B-Halo (UniProt P33176); test: TIRF microscopy single-molecule binding assay
[7] = target: KIF5B-Halo (UniProt P33176); test: co-sedimentation
[8] = target: KIF5B (endogenous, HeLa) (human (endogenous in HeLa)) (UniProt P33176); test: co-IP; remark: listed apart in the source
[9] = target: KIF5B (endogenous, Neuro 2) (mouse (endogenous in Neuro 2)) (UniProt Q61768); test: co-IP

SUN1-myc (from UniProt O94901 1-785) was tested. Which binding [1] did it give?
Its binding is “binds”.

And the binding [2]?
The binding was “binds”.

How did the binding [3] turn out when KIF5B (from UniProt Q61768 1-963) was run?
Its binding is “binds”.

For “mouse KIF5B (1-963 amino acids) (from UniProt Q61768 1-963)”, which binding [4] is on record?
Its binding is “binds”.

B1: KASH5 (protein, UniProt Q80VJ8 1-648)
chain: MHSILRSSLSSREALRMRQLKGLRKERPGRHPLGVRLRAIWTSFLFPNPPHSGGKLRASTAAVEEHQEWSMDLPEGQAGGPTAQMYLWEQPEEASSRPLLSLEEQILNSTFEACDPHKTGTVTVAHLLAYLEAVTGQGPQDVRLQTLARSLDPYGEGAGATVELDTFLVVMRDWIAACQLQGGLERAEETAYEGALASPHLPSVCPEAEESANLESFGGEDPRPEGPATAELLSNLEDLELSNRRLAGENAKLQRSVETAEEGSARLGEEITALRKQLRSTQQALQVAKALDEELEDLKTLAKSLEEQNRSLMAQARHTEKEQQHLAAEVETLQEENEKLLAERDGVKRRSEELATEKDALKRQLCECERLICQREAVLSERTRHAESLARTLEEYRTTTQELRQEISNLEEQLSQSQEGPEELLEGAEAGRVGWIMALPPSLDLEIQAIRQEQDVASAGLSSPLYGVWQWEEVEPEPEPEPEPEPEPEPQEVEFPSEDPARQQTDLQREPVRALEGSRAPCLRLSRSQEEEEEEEESWVLADPSSPLGTYHHKLAPGSSRESCHIVPEMHQALMPVVRDLVPVERSRTQHCLHPQHSPGIRISQHPLVPTPVLGLLLLLLLSILLFSQSPPPTWPHLQLYYLQPPPV
Which binding [5] does the source give for B1 here?
Its binding is “binds”.

B2: Halo-KASH5 1-400 (domain or fragment, UniProt Q8N6L0 1-400)
chain: MDLPEGPVGGPTAEMYLRERPEEARLGMPVSLEEQILNSTFEACDPQRTGTVAVAQVLAYLEAVTGQGPQDARLQTLANSLDPNGEGPKATVDLDTFLVVMRDWIAACQLHGGLELEEETAFQGALTSRQLPSGCPEAEEPANLESFGGEDPRPELQATADLLSSLEDLELSNRRLVGENAKLQRSMETAEEGSARLGEEILALRKQLHSTQQALQFAKAMDEELEDLKTLARSLEEQNRSLLAQARQAEKEQQHLVAEMETLQEENGKLLAERDGVKKRSQELAMEKDTLKRQLFECEHLICQRDTILSERTRDVESLAQTLEEYRVTTQELRLEISRLEEQLSQTYEGPDELPEGAQLRRVGWTELLPPSLGLEIEAIRQKQEVATADLSNPLCGVWQ
modifications: Halo-TMR label (in the TIRF assay)
Which results are given for B2?
binding [6]: binds; binding [7]: binds

B3: FLAG-KASH5-FL (protein, UniProt Q8N6L0 1-562)
chain: MDLPEGPVGGPTAEMYLRERPEEARLGMPVSLEEQILNSTFEACDPQRTGTVAVAQVLAYLEAVTGQGPQDARLQTLANSLDPNGEGPKATVDLDTFLVVMRDWIAACQLHGGLELEEETAFQGALTSRQLPSGCPEAEEPANLESFGGEDPRPELQATADLLSSLEDLELSNRRLVGENAKLQRSMETAEEGSARLGEEILALRKQLHSTQQALQFAKAMDEELEDLKTLARSLEEQNRSLLAQARQAEKEQQHLVAEMETLQEENGKLLAERDGVKKRSQELAMEKDTLKRQLFECEHLICQRDTILSERTRDVESLAQTLEEYRVTTQELRLEISRLEEQLSQTYEGPDELPEGAQLRRVGWTELLPPSLGLEIEAIRQKQEVATADLSNPLCGVWQWEEVIHETSEETEFPSEAPAGGQRNFQGEPAHPEEGRKEPSMWLTRREEEEDAESQVTADLPVPLGAPRPGDIPENPPERPARRELQQALVPVMKKLVPVRRRAWGQLCLPPQRLRVTRHPLIPAPVLGLLLLLLLSVLLLGPSPPPTWPHLQLCYLQPPPV
Which binding [8] does the source give for B3 here?
The binding was “binds”.

B4: FLAG-KASH5-FL (in Neuro 2 cells) (protein, UniProt Q8N6L0 1-562)
chain: MDLPEGPVGGPTAEMYLRERPEEARLGMPVSLEEQILNSTFEACDPQRTGTVAVAQVLAYLEAVTGQGPQDARLQTLANSLDPNGEGPKATVDLDTFLVVMRDWIAACQLHGGLELEEETAFQGALTSRQLPSGCPEAEEPANLESFGGEDPRPELQATADLLSSLEDLELSNRRLVGENAKLQRSMETAEEGSARLGEEILALRKQLHSTQQALQFAKAMDEELEDLKTLARSLEEQNRSLLAQARQAEKEQQHLVAEMETLQEENGKLLAERDGVKKRSQELAMEKDTLKRQLFECEHLICQRDTILSERTRDVESLAQTLEEYRVTTQELRLEISRLEEQLSQTYEGPDELPEGAQLRRVGWTELLPPSLGLEIEAIRQKQEVATADLSNPLCGVWQWEEVIHETSEETEFPSEAPAGGQRNFQGEPAHPEEGRKEPSMWLTRREEEEDAESQVTADLPVPLGAPRPGDIPENPPERPARRELQQALVPVMKKLVPVRRRAWGQLCLPPQRLRVTRHPLIPAPVLGLLLLLLLSVLLLGPSPPPTWPHLQLCYLQPPPV
Which binding [9] does the source give for B4 here?
Its binding is “binds”.

— doi:10.1101/2025.05.28.656678
